In patent publication US10597649B2, “Tau protease compositions and methods of use” (Oligomerix, Inc., priority 2011, dated 2020):
For at least one compound, name, drawing or mass did not settle the structure. Starred links: 1 amine or outer side, 2 acyl side, 3 side chain; linkers in the order of their positions; H or OH if unused. Residues, ends and D or L forms follow the SMILES beside them. CO = O=C([*:1])[*:2]

Legend:
tau 4R2N trimer = target: T1, tau 4R2N trimer (Homo sapiens, UniProt P10636); experiment: Tau 4R2N trimer incubated overnight with protease inhibitors, fragmentation read by SDS-PAGE; format: biochemical; settings: 0.45 μg tau 4R2N trimer at 0.2 mg/mL, overnight at 37° C., symbols ++, − not defined
T1 construct: Stabilization buffer enables production of full length monomer, dimer and trimer for tau protease; made in house; host or cells: E. coli BL21 (DE3) Gold

tau 4R2N trimer protease = target: T2, tau 4R2N trimer protease (Homo sapiens, UniProt P10636); experiment: Peptide assay (tau peptide 335-353, reverse-phase HPLC) used to screen serine protease inhibitors; format: biochemical; settings: 100 pM antipain, one hr at room temperature before peptide substrate
T2 construct: Stabilization buffer enables production of full length monomer, dimer and trimer for tau protease; made in house; host or cells: E. coli BL21 (DE3) Gold
Source text: N-terminal sequencing of fragments using mass spectrometry identified autoproteolytic cut sites. In particular, cutting at the Lys340-Ser341 (340KS341) cut site occurred readily. Therefore, a 19-amino acid peptide corresponding to amino acids 335G to 353L of tau protein was synthesized that contained the KS cut site (340KS341). The reaction was monitored by reverse-phase high-pressure liquid chromatography (HPLC). […] An asterisk marks a non-specific contaminant that was used as a marker. […] 10 μg of tau peptide 335-353 ([…]) (SEQ ID NO:19) was custom synthesized by Genscript (Piscataway, N.J., USA) and 1 mg was dissolved in 1 mL of buffer (25 mM Tris-HCl pH 7.4). […] of peptide was incubated with 11 μg of tau trimer protease in 30 μL buffer 20 hr at 37° C. and analyzed by HPLC [SystemGold® 32Karat™ LC-CE System, Beckman Coulter, Inc., (Indianapolis, Ind.)] using a linear gradient of acetonitrile in 0.1% TFA 0-60% acetonitrile on an analytical C18 column (12.5 cm×2.1 mm, 5 μm, (Supelco, Bellefonte, Pa., USA). 30 μg of peptide was incubated without tau protease as a negative control and analyzed with the same method;
The peptide assay for tau 4R2N trimer activity described in FIG. 5 was used to screen a series of serine protease inhibitors. 1 mM AEBSF was incubated with tau 4R2N trimer for 1 hr at room temperature before addition of the peptide substrate. […]

CC(C)[C@H](NC(=O)[C@H](CCCNC(=N)N)NC(=O)N[C@@H](Cc1ccccc1)C(=O)O)C(=O)N[C@H](C=O)CCCNC(=N)N [Antipain] ({Phe-CO}-Arg-Val-Arg-aldehyde)
Activity (serine specific protease inhibitor effect on trimer activity) (tau 4R2N trimer): +
inhibition of cleavage of the peptide (FIG. 14B) (tau 4R2N trimer protease): strongly inhibited
